{
  "sequences": {"note": "Sequences of proteins named here, by UniProt entry; tags and fusion partners are left off.", "UniProt Q9CW03": "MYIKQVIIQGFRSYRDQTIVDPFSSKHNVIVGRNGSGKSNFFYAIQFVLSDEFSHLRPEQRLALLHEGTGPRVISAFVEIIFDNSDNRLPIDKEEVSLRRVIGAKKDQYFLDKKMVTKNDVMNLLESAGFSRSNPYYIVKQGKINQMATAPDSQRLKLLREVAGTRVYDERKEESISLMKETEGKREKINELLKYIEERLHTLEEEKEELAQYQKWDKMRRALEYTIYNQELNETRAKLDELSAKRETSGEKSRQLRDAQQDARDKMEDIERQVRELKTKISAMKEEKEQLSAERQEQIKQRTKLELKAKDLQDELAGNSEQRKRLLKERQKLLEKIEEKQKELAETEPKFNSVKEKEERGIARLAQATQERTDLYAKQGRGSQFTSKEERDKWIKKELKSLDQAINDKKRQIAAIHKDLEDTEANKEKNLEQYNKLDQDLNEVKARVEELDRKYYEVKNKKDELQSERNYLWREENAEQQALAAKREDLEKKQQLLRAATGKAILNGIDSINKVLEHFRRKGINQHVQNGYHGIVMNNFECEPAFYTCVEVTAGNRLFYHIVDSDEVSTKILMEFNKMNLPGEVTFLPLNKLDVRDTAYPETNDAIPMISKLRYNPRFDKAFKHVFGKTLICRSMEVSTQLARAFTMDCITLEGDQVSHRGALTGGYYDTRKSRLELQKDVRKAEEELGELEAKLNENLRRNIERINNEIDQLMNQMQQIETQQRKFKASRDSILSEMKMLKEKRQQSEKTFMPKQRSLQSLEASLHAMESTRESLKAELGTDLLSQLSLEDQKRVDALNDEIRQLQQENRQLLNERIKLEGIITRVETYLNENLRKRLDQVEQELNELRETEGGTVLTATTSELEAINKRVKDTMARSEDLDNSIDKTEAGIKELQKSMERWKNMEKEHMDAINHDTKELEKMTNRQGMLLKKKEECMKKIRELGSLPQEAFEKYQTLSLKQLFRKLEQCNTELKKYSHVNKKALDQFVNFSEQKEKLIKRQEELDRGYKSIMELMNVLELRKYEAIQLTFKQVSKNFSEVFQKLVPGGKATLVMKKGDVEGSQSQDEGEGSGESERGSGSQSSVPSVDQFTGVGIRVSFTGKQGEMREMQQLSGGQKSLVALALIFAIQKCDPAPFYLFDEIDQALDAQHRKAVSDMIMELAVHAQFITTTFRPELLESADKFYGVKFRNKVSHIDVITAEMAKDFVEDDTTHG"},
  "source": "paper PMC7025286",
  "target": "T1, SMC1β (mouse (endogenous in testis)) (UniProt Q920F6)",
  "T1 sequence": "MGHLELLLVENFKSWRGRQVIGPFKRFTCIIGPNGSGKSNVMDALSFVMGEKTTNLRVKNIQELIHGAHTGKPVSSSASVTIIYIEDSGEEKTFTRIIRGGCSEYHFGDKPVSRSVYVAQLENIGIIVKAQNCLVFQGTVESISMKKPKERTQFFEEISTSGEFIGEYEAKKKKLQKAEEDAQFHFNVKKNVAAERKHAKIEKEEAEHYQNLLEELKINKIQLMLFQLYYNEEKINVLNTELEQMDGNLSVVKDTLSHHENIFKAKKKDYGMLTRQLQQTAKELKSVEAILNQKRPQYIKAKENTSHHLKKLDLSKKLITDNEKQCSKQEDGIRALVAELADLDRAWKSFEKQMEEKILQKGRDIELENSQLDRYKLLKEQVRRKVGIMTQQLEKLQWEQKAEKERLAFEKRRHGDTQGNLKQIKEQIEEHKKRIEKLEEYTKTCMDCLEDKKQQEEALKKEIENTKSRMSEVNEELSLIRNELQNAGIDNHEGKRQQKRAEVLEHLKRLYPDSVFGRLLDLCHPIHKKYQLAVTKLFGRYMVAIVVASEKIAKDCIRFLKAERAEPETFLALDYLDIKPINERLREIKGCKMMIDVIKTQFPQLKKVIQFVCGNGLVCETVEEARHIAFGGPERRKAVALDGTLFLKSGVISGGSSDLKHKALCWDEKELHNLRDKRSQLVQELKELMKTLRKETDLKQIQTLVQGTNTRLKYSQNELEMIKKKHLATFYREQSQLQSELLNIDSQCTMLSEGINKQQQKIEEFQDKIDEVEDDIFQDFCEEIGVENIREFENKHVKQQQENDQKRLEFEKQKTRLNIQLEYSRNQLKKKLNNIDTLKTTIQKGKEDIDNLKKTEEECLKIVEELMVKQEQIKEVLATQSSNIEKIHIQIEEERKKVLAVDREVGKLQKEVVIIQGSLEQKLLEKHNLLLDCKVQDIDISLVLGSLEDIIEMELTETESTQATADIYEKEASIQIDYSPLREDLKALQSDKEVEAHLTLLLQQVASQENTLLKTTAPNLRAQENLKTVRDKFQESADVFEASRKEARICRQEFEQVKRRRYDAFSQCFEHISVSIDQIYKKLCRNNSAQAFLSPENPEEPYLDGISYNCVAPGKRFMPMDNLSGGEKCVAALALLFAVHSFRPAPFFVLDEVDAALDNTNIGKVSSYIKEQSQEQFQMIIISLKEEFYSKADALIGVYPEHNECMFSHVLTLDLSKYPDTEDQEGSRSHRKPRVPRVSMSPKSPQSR",
  "assay": "co-IP; 600 μg testis nuclear extract with anti-SMC1β IgG (mouse hybridoma supernatant) overnight at 4°C, Protein G Dynabeads; immunoblot with anti-acSMC3, anti-SMC3 and anti-SMC1β; extracts of wild-type mice (Fig 1A) and of control and Esco2 fl/Δ Vasa-cre mice (Fig S17D); control IP with anti-MYC IgG",
  "note": "These are yes or no findings as the source states them, for the method shown. In cells and extracts the contact can be indirect. Some results given as binding are weak or reduced against the parent protein; the word gives no strength.",
  "data": [
    {"substance": "SMC3 acetylated on K105/K106 (from UniProt Q9CW03 1-1217)", "values": [
      {"measurement": "binding", "value": "binds"}
    ]}
  ]
}
